# PubChem BioAssay AID504804 – Drosophila RNAi Screening Center | 2011
# Assay: 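Fly genes whose loss lessens doxorubicin-driven cell death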 (primary screen)
# System: Drosophila Kc cells
# Knock-down reagent: long dsRNA against Drosophila genes, 0.5 µg dsRNA per well
# Timing: 96 h (48 h knock-down, then 48 h drug)
# Treatment: doxorubicin 5 µg/ml for 48 h, added 48 h after dsRNA
# Read-out: 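Viability measured as cellular ATP by luminescence after 48 h knock-down then 48 h doxorubicin at 5 µg/ml; unnormalised plate counts for each replicate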
# Direction: raw ATP luminescence: higher = more viable cells, protection from doxorubicin
# Call rule: 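z-score of 2 or more over plate mean in both duplicates, retained only when retests and separate dsRNAs confirm the protection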
# In all, the deposit lists about 19,000 reagents; shown is a random part of those with a known target gene and a result. In the full data, 47 (0.25%) were called active. 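Signals are raw, not normalised; exact z-scores behind calls not deposited; actives needed confirmation, so some wells reaching 2 SD are inactive.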 A number with no mark means an inactive call. Names joined by + are all predicted targets of the reagent.
target,DRSC id,"raw ATP luminescence, replicate 1","raw ATP luminescence, replicate 2"
CG8306,DRSC07141,46387,54637
CG6621,DRSC16076,53343,24187
Jon65Ai,DRSC09731,96340,78560
gem,DRSC06093,56493,50120
gem,DRSC06847,35943,66317
anchor,DRSC10861,23800,21977
Kap-alpha1,DRSC11356,63620,60207
Mvk + CG33672 + spt4,DRSC05356,1.05e5,1.05e5
Mvk + CG33672 + spt4,DRSC06628,50540,50010
jp,DRSC02213,78003,67937
jp,DRSC02744,20873,52837
mira,DRSC16998,37360,42010
ana1,DRSC16079,38713,52687
D19A,DRSC11133,28280,26510
CG1958,DRSC18196,35680,43340
CNT1 + CG13742,DRSC06413,48683,73700
CG2921,DRSC04324,79970,74407
CG7148,DRSC11802,20577,19363
CG5172,DRSC19936,2.61e5,2.50e5
GatC + PolG2,DRSC03312,73733,61777
CG7215 + Prx5,DRSC16214,41170,56570
CG7215 + Prx5,DRSC16215,40940,43730
Treh,DRSC04548,81383,66847
Etf-QO,DRSC06111,41833,91273
CG34324,DRSC19502,3.65e5,3.10e5
Osi12,DRSC12177,71773,51733
Pcp,DRSC03395,37160,44120
CG34232,DRSC05332,60613,69070
CG7402,DRSC10839,49343,47603
dbr,DRSC00274,1.29e5,1.28e5
CG14431,DRSC17925,31050,37190
CG33258,DRSC09415,78670,73900
Cda5,DRSC00003,2.68e5,3.08e5
Gip,DRSC18667,1.66e5,2.05e5
subdued,DRSC15137,49500,37333
CG12069,DRSC14470,42570,33070
CG10435,DRSC14246,66320,24697
Tektin-C,DRSC09741,56683,71520
smal,DRSC02318,25167,29720
smal,DRSC02319,23963,35973
smal,DRSC02320,26577,33740
smal,DRSC02504,31817,35693
Cap-D3 + tomb,DRSC02347,23213,25263
SPH93,DRSC02978,61900,78780
CG6985,DRSC16164,61167,47390
Naglu,DRSC02267,1.33e5,84323
CG33342,DRSC13662,1.94e5,2.27e5
aPKC,DRSC05515,64743,95070
nrv3,DRSC03097,1.94e5,2.34e5
CG42741,DRSC04593,54977,46563
SMC2,DRSC07544,69850,61637
CG15461,DRSC20532,3.74e5,3.63e5
CG12384,DRSC06145,71760,44623
CG18284,DRSC02661,1.39e5,82050
CG18284,DRSC20756,2.51e5,2.54e5
Cyp313a1,DRSC16624,76660,77210
SP1029,DRSC16848,38980,46110
CG14132,DRSC10136,83250,57890
CG2656,DRSC12584,62157,25063
CG15475,DRSC02486,52587,49570
CG34022 (retired record),DRSC07949,1.23e5,1.01e5
CG10140,DRSC09704,80853,73427
Pgant3,DRSC05942,69903,65883
D,DRSC11132,56350,46333
Jig,DRSC14974,77910,61820
AP-1gamma,DRSC18433,3.04e5,2.63e5
CG11200,DRSC06060,51360,57333
CG7650,DRSC10898,42523,38640
CG32189,DRSC09511,62383,72117
Ubc4,DRSC11312,44077,36733
ema,DRSC14536,1.11e5,1.05e5
CG8563,DRSC10996,68517,86053
Cndp2,DRSC04873,44710,50357
CG14223,DRSC19580,3.04e5,2.88e5
Gr22e,DRSC20912,2.28e5,3.51e5
ProtB,DRSC03373,45513,62293
ric8b + ric8a,DRSC18104,3.60e5,3.48e5
NijA,DRSC10637,97137,68880
CG31106,DRSC14655,90790,95940
SREBP,DRSC11182,60340,52137
CG13616,DRSC14619,56520,59070
RhoBTB,DRSC11877,22343,19090
FucTC,DRSC20966,2.26e5,2.22e5
Obp18a,DRSC19736,4.14e5,3.71e5
